This is an account of results in the supplement of paper PMC8728848.

The other results are listed elsewhere or left out.

What all share (assay): glycan array binding signal (z-score within array); higher = stronger binding
Common to all, as to conditions: glycan notation: IUPAC condensed, linker removed

For one test, the target named is Glc(b1-4)Glc. In outline:
(§1)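 The Consortium for Functional Glycomics database supplied 3228 glycan arrays, of which those lacking an available protein sequence were dropped. The binding signal, a within-array Z-score, was averaged across arrays of the same protein sequence and across linkers. Negative scores can be read as non-binding.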

The target of a further test is Glc(b1-6)Glc. In outline:
as §1

The next test has as its target GlcA(b1-3)Gal. Put shortly:
as §1

In the next test the target is GlcA(b1-3)GlcNAc. In outline: as §1
The target of another test is GlcA(b1-6)Gal. In outline:
as §1

The target of test [1] is GlcA3S(b1-3)Gal(b1-4)GlcNAc(b1-2)Man. Put shortly: as §1
The target of test [2] is GlcA3S(b1-3)Gal(b1-4)GlcNAc(b1-3)Gal(b1-4)Glc. Put shortly: as §1
For test [3], the target named is GlcNAc(a1-3)Gal(b1-4)GlcNAc. Put shortly: as §1
Test [4] has as its target GlcNAc(a1-4)Gal(b1-3)GlcNAc. Put shortly: as §1
Test [5] concerns the target GlcNAc(a1-4)Gal(b1-4)GalNAc. Put shortly:
as §1

The target in test [6] is GlcNAc(a1-4)Gal(b1-4)GlcNAc. In outline: as §1
Test [7] addresses GlcNAc(a1-4)Gal(b1-4)GlcNAc(b1-3)Gal(b1-4)Glc. Put shortly: as §1
Test [8] has as its target GlcNAc(a1-4)Gal(b1-4)GlcNAc(b1-3)Gal(b1-4)GlcNAc. In outline:
as §1

The target in test [9] is GlcNAc(a1-4)Gal(b1-4)GlcNAc(b1-3)Gal(b1-4)GlcNAc(b1-3)Gal(b1-4)GlcNAc. Put shortly: as §1
Test [10] deals with GlcNAc(a1-4)Gal(b1-4)GlcNAc(b1-3)Gal(b1-4)[Fuc(a1-3)]GlcNAc(b1-3)Gal(b1-4)[Fuc(a1-3)]GlcNAc. In outline:
as §1

Test [11] concerns the target GlcNAc(a1-6)Gal(b1-4)GlcNAc. In outline: as §1
Test [12] deals with GlcNAc(b1-2)Gal(b1-3)GalNAc. In outline:
as §1

For test [13], the target named is GlcNAc(b1-2)Man(a1-3)[GlcNAc(b1-2)Man(a1-6)]Man(b1-4)GlcNAc(b1-4)GlcNAc. Put shortly:
as §1

Test [14] concerns the target GlcNAc(b1-2)Man(a1-3)[GlcNAc(b1-2)Man(a1-6)]Man(b1-4)GlcNAc(b1-4)[Fuc(a1-6)]GlcNAc. Put shortly:
as §1

Test [15] has as its target GlcNAc(b1-2)Man(a1-3)[GlcNAc(b1-4)][GlcNAc(b1-2)Man(a1-6)]Man(b1-4)GlcNAc(b1-4)GlcNAc. In outline:
as §1

For test [16], the target named is GlcNAc(b1-2)Man(a1-3)[GlcNAc(b1-4)][GlcNAc(b1-2)Man(a1-6)]Man(b1-4)GlcNAc(b1-4)[Fuc(a1-6)]GlcNAc. In outline: as §1
Test [17] has as its target GlcNAc(b1-2)[GlcNAc(b1-4)]Man(a1-3)[GlcNAc(b1-2)Man(a1-6)]Man(b1-4)GlcNAc(b1-4)GlcNAc. In outline: as §1

B1: Drgal1 (Danio rerio) (protein)
chain: MAGVLIQNMSFKVGQTLTITGVPKPDSTNFAINIGHSPEDIALHMNPRFDAHGDQCTIVCNSFQSGSWCEEHRDDNFPFIQDKEFQIKITFTNEEFLVTLPDGSEIHFPNRQGSEKYKYMYFEGEVRIQGVEIK
With B1, the “glycan array binding signal (z-score)” value was -0.403 with Glc(b1-4)Glc; -0.633 in the test with Glc(b1-6)Glc; -0.673 with GlcA(b1-3)Gal; -0.083 in the test with GlcA(b1-3)GlcNAc; -0.236 in the test with GlcA(b1-6)Gal; -0.207 in test [1]. Besides, the “glycan array binding signal (z-score)” value in test [2] is 0.153; in test [3], 0.004; in test [4], 0.083; in test [5], 0.082; in test [6] it was -0.482; in [7], 0.258. Besides, the “glycan array binding signal (z-score)” value in [8] was -0.473; in test [9] it was 0.122; in test [10], 0.686; in test [11], 0.139; in [12], 0.337; in test [13], -0.291. Moreover, the “glycan array binding signal (z-score)” value in test [14] was 0.421; in [15], -0.094; in test [16], -0.169; in test [17] it was -0.339.
